Experimental data as given in patent publication US20050048603A1 (priority 2001, published 2005).
No constants are given. Whether binding was seen depends on the method and setting. Some results given as binding are weak or reduced against the parent protein; the word gives no strength. Tags and fused reporters may be left off the sequences shown.

Molecular target: mycoAC holoenzyme expressed in E. coli (N-terminal His6-tag) (Mycobacterium tuberculosis) (UniProt P9WQ35)
Experiment: SDS-PAGE and Western blot of the holoenzyme expressed in E. coli; 92 kDa band

B1: mycoAC holoenzyme expressed in E. coli (N-terminal His6-tag) (enzyme)
chain: MRGSHHHHHHGSMAARKCGAPPIAADGSTRRPDCVTAVRTQARAPTQHYAESVARRQRVLTITAWLAVVVTGSFALMQLATGAGGWYIALINVFTAVTFAIVPLLHRFGGLVAPLTFIGTAYVAIFAIGWDVGTDAGAQFFFLVAAALVVLLVGIEHTALAVGLAAVAAGLVIALEFLVPPDTGLQPPWAMSVSFVLTTVSACGVAVATVWFALRDTARAEAVMEAEHDRSEALLANMLPASIAERLKEPERNIIADKYDEASVLFADIVGFTERASSTAPADLVRFLDRLYSAFDELVDQHGLEKIKVSGDSYMVVSGVPRPRPDHTQALADFALDMTNVAAQLKDPRGNPVPLRVGLATGPVVAGVVGSRRFFYDVWGDAVNVASRMESTDSVGQIQVPDEVYERLKDDFVLRERGHINVKGKGVMRTWYLIGRKVAADPGEVRGAEPRTAGV
With B1 the binding was “binds”.
